# Measured values taken from the supplement of paper PMC8728848.
# The list shows a part of the results.
# Key:
# Assay in all cases: glycan array binding signal (z-score within array); higher = stronger binding
# Conditions in all cases: glycan notation: IUPAC condensed, linker removed
# Gal(b1-3)Gal(b1-4)GlcNAc = biological target: Gal(b1-3)Gal(b1-4)GlcNAc
# Outline: (§1)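 The binding signal is a Z-score computed within each array. Data were drawn from 3228 arrays in the Consortium for Functional Glycomics database, restricted to those with a known protein sequence. Scores were averaged over arrays of the same protein sequence at different concentrations or buffers, and over linkers, and negative values can be taken as non-binding.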
# [1] = biological target: Gal(b1-3)Gal(b1-4)GlcNAc(b1-2)Man(a1-3)[Gal(b1-3)Gal(b1-4)GlcNAc(b1-2)Man(a1-6)]Man(b1-4)GlcNAc(b1-4)GlcNAc
# Outline: as §1
# Gal(b1-3)GalNAc = biological target: Gal(b1-3)GalNAc
# Outline: as §1
# [2] = biological target: Gal(b1-3)GalNAc(a1-3)[Fuc(a1-2)]Gal(b1-4)Glc
# Outline: as §1
# [3] = biological target: Gal(b1-3)GalNAc(a1-3)[Fuc(a1-2)]Gal(b1-4)GlcNAc
# Outline: as §1
# [4] = biological target: Gal(b1-3)GalNAc(b1-3)Gal(a1-4)Gal(b1-4)Glc
# Outline: as §1
# [5] = biological target: Gal(b1-3)GalNAc(b1-4)Gal(b1-4)Glc
# Outline: as §1
# [6] = biological target: Gal(b1-3)GalNAc(b1-4)[Neu5Ac(a2-3)]Gal(b1-4)Glc
# Outline: as §1
# Gal(b1-3)GlcNAc = biological target: Gal(b1-3)GlcNAc
# Outline: as §1
# [7] = biological target: Gal(b1-3)GlcNAc(b1-2)Man(a1-3)[Gal(b1-3)GlcNAc(b1-2)Man(a1-6)]Man(b1-4)GlcNAc(b1-4)GlcNAc
# Outline: as §1
# [8] = biological target: Gal(b1-3)GlcNAc(b1-2)Man(a1-3)[Gal(b1-3)GlcNAc(b1-2)Man(a1-6)]Man(b1-4)GlcNAc(b1-4)[Fuc(a1-6)]GlcNAc
# Outline: as §1
# [9] = biological target: Gal(b1-3)GlcNAc(b1-3)Gal(b1-3)GlcNAc
# Outline: as §1
# [10] = biological target: Gal(b1-3)GlcNAc(b1-3)Gal(b1-4)Glc
# Outline: as §1
# [11] = biological target: Gal(b1-3)GlcNAc(b1-3)Gal(b1-4)GlcNAc
# Outline: as §1
# [12] = biological target: Gal(b1-3)[Fuc(a1-4)]GlcNAc
# Outline: as §1
# [13] = biological target: Gal(b1-3)[Fuc(a1-4)]GlcNAc(b1-2)Man(a1-3)[Gal(b1-3)[Fuc(a1-4)]GlcNAc(b1-2)Man(a1-6)]Man(b1-4)GlcNAc(b1-4)GlcNAc
# Outline: as §1
# [14] = biological target: Gal(b1-3)[Fuc(a1-4)]GlcNAc(b1-2)Man(a1-3)[Gal(b1-3)[Fuc(a1-4)]GlcNAc(b1-2)Man(a1-6)]Man(b1-4)GlcNAc(b1-4)[Fuc(a1-6)]GlcNAc
# Outline: as §1
# [15] = biological target: Gal(b1-3)[Fuc(a1-4)]GlcNAc(b1-3)Gal(b1-3)[Fuc(a1-4)]GlcNAc
# Outline: as §1
# [16] = biological target: Gal(b1-3)[Fuc(a1-4)]GlcNAc(b1-3)Gal(b1-4)GlcNAc
# Outline: as §1
# [17] = biological target: Gal(b1-3)[Fuc(a1-4)]GlcNAc(b1-3)Gal(b1-4)[Fuc(a1-3)]GlcNAc
# Outline: as §1
# [18] = biological target: Gal(b1-3)[GlcNAc(b1-6)]GalNAc
# Outline: as §1
# [19] = biological target: Gal(b1-3)[Neu5Ac(a2-6)]GalNAc
# Outline: as §1
# [20] = biological target: Gal(b1-3)[Neu5Ac(a2-6)]GlcNAc(b1-6)Gal(b1-4)Glc
# Outline: as §1
# [21] = biological target: Gal(b1-3)[Neu5Ac(b2-6)]GalNAc
# Outline: as §1
# [22] = biological target: Gal(b1-4)GalNAc(a1-3)[Fuc(a1-2)]Gal(b1-4)GlcNAc
# Outline: as §1
# [23] = biological target: Gal(b1-4)GalNAc(b1-3)[Fuc(a1-2)]Gal(b1-4)GlcNAc
# Outline: as §1
# Gal(b1-4)Glc = biological target: Gal(b1-4)Glc
# Outline: as §1
# Gal(b1-4)Glc6S = biological target: Gal(b1-4)Glc6S
# Outline: as §1
# Gal(b1-4)GlcNAc = biological target: Gal(b1-4)GlcNAc
# Outline: as §1
# [24] = biological target: Gal(b1-4)GlcNAc(a1-6)Gal(b1-4)GlcNAc
# Outline: as §1
# [25] = biological target: Gal(b1-4)GlcNAc(b1-2)Man(a1-3)Man(b1-4)GlcNAc(b1-4)GlcNAc
# Outline: as §1
# [26] = biological target: Gal(b1-4)GlcNAc(b1-2)Man(a1-3)[Gal(b1-4)GlcNAc(b1-2)Man(a1-6)]Man(b1-4)GlcNAc(b1-4)GlcNAc
# Outline: as §1
# [27] = biological target: Gal(b1-4)GlcNAc(b1-2)Man(a1-3)[Gal(b1-4)GlcNAc(b1-2)Man(a1-6)]Man(b1-4)GlcNAc(b1-4)[Fuc(a1-6)]GlcNAc
# Outline: as §1
# [28] = biological target: Gal(b1-4)GlcNAc(b1-2)Man(a1-3)[Man(a1-6)]Man(b1-4)GlcNAc(b1-4)GlcNAc
# Outline: as §1
# [29] = biological target: Gal(b1-4)GlcNAc(b1-2)Man(a1-6)Man(b1-4)GlcNAc(b1-4)GlcNAc
# Outline: as §1
# [30] = biological target: Gal(b1-4)GlcNAc(b1-2)Man(a1-6)[Man(a1-3)]Man(b1-4)GlcNAc(b1-4)GlcNAc
# Outline: as §1
# [31] = biological target: Gal(b1-4)GlcNAc(b1-2)[Gal(b1-4)GlcNAc(b1-4)]Man(a1-3)[Gal(b1-4)GlcNAc(b1-2)Man(a1-6)]Man(b1-4)GlcNAc(b1-4)GlcNAc
# Outline: as §1
binder,measurement,setting,value
"Adiponectin (Rattus norvegicus), Q8K3R4 (protein) MLLLQALLFLLILPSHEGITATEGPGALVPPPKETCAGWMAGIPGYPGHNGIPGRDGRDGTPGEKGEKGDAGVLGPKGDPGDAGMTGAEGPRGFPGTPGRKGEPGEAAYMYHSAFSVGLETRVTVPNVPIRFTKIFYNQQNHYDGSTGKFHCNIPGLYYFSYHITVYMKDVKVSLFKKDKAVLFTYDQYQEKNVDQASGSMLLHLEVGDQVWLQVYGEGDNNGLYADNVNDSTFTGFLLYHDTN",glycan array binding signal (z-score),Gal(b1-3)Gal(b1-4)GlcNAc,0.528
same,glycan array binding signal (z-score),[1],-0.799
same,glycan array binding signal (z-score),Gal(b1-3)GalNAc,-0.573
same,glycan array binding signal (z-score),[2],2.11
same,glycan array binding signal (z-score),[3],-0.406
same,glycan array binding signal (z-score),[4],-0.835
same,glycan array binding signal (z-score),[5],-0.713
same,glycan array binding signal (z-score),[6],-0.307
same,glycan array binding signal (z-score),Gal(b1-3)GlcNAc,-0.279
same,glycan array binding signal (z-score),[7],-0.669
same,glycan array binding signal (z-score),[8],-1.31
same,glycan array binding signal (z-score),[9],-0.596
same,glycan array binding signal (z-score),[10],0.919
same,glycan array binding signal (z-score),[11],0.244
same,glycan array binding signal (z-score),[12],0.096
same,glycan array binding signal (z-score),[13],-1.37
same,glycan array binding signal (z-score),[14],-1.12
same,glycan array binding signal (z-score),[15],-0.659
same,glycan array binding signal (z-score),[16],-0.476
same,glycan array binding signal (z-score),[17],-0.73
same,glycan array binding signal (z-score),[18],-0.199
same,glycan array binding signal (z-score),[19],1.84
same,glycan array binding signal (z-score),[20],0.072
same,glycan array binding signal (z-score),[21],-0.559
same,glycan array binding signal (z-score),[22],-0.398
same,glycan array binding signal (z-score),[23],0.506
same,glycan array binding signal (z-score),Gal(b1-4)Glc,0.419
same,glycan array binding signal (z-score),Gal(b1-4)Glc6S,-0.949
same,glycan array binding signal (z-score),Gal(b1-4)GlcNAc,-0.468
same,glycan array binding signal (z-score),[24],-0.335
same,glycan array binding signal (z-score),[25],-0.863
same,glycan array binding signal (z-score),[26],1.59
same,glycan array binding signal (z-score),[27],-0.816
same,glycan array binding signal (z-score),[28],1.31
same,glycan array binding signal (z-score),[29],0.715
same,glycan array binding signal (z-score),[30],-1.04
same,glycan array binding signal (z-score),[31],-0.006

# Random excerpt: 2 entries already listed, in no set order.
binder,measurement,setting,value
"Adiponectin (Rattus norvegicus), Q8K3R4 (protein) MLLLQALLFLLILPSHEGITATEGPGALVPPPKETCAGWMAGIPGYPGHNGIPGRDGRDGTPGEKGEKGDAGVLGPKGDPGDAGMTGAEGPRGFPGTPGRKGEPGEAAYMYHSAFSVGLETRVTVPNVPIRFTKIFYNQQNHYDGSTGKFHCNIPGLYYFSYHITVYMKDVKVSLFKKDKAVLFTYDQYQEKNVDQASGSMLLHLEVGDQVWLQVYGEGDNNGLYADNVNDSTFTGFLLYHDTN",glycan array binding signal (z-score),[4],-0.835
same,glycan array binding signal (z-score),[3],-0.406
